From the supplement of paper PMC10849652
The other results are listed elsewhere or left out.

Sequences of proteins named here, by UniProt entry; tags and fusion partners are left off. A change or cut given only in a name is not applied to a line headed by its entry.
UniProt Q9BXF6: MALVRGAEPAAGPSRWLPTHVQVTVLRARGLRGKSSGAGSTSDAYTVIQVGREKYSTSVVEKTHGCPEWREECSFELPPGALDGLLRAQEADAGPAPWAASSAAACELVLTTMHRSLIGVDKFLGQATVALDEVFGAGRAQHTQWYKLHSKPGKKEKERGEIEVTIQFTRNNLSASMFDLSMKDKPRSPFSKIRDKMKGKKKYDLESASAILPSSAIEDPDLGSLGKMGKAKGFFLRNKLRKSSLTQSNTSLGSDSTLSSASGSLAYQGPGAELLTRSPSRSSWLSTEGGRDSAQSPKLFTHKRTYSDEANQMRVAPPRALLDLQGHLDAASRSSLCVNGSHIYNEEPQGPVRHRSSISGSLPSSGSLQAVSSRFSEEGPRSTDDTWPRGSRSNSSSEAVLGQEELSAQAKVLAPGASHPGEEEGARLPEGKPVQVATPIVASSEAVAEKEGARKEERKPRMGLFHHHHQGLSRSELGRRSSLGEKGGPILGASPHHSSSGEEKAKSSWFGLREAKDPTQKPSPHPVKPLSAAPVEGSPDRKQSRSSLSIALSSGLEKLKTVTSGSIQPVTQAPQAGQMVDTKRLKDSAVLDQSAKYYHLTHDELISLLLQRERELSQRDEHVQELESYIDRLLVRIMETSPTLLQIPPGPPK
UniProt P54725: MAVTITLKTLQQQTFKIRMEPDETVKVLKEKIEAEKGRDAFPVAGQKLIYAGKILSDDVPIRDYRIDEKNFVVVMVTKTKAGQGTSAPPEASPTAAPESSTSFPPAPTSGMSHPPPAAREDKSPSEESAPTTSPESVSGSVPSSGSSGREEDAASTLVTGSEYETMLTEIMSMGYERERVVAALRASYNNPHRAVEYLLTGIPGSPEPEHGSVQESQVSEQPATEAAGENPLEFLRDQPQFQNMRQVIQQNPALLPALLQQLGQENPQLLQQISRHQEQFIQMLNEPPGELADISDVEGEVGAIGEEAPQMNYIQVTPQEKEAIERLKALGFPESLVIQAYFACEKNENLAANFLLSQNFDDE
UniProt Q9NS23: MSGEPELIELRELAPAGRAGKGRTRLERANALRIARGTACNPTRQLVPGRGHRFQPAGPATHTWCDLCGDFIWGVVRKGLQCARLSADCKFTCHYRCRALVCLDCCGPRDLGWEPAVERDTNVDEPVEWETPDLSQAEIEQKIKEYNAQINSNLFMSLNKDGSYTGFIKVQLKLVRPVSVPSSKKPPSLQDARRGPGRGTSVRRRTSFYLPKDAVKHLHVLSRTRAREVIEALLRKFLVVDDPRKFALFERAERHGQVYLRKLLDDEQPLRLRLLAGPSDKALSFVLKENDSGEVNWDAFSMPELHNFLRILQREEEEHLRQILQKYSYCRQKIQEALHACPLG
UniProt Q9BYM8: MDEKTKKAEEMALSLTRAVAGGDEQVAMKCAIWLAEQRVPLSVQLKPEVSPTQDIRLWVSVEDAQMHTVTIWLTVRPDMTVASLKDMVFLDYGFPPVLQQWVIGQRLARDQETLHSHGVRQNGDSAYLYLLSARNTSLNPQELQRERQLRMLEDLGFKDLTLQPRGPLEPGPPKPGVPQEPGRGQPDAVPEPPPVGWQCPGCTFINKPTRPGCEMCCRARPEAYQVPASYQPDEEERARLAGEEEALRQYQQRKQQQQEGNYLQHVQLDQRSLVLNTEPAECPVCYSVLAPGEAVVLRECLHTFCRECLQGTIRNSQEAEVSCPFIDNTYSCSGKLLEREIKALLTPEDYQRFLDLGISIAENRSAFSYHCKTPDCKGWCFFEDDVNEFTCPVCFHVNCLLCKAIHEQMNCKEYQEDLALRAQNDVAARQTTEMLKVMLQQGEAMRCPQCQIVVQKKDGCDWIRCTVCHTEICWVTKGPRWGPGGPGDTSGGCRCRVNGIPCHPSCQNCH
UniProt Q9HD47: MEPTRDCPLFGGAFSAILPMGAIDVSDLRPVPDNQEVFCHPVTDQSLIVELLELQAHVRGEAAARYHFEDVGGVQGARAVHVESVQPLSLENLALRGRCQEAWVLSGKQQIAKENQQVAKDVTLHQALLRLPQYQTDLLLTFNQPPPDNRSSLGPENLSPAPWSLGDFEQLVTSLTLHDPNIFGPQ
UniProt O15315: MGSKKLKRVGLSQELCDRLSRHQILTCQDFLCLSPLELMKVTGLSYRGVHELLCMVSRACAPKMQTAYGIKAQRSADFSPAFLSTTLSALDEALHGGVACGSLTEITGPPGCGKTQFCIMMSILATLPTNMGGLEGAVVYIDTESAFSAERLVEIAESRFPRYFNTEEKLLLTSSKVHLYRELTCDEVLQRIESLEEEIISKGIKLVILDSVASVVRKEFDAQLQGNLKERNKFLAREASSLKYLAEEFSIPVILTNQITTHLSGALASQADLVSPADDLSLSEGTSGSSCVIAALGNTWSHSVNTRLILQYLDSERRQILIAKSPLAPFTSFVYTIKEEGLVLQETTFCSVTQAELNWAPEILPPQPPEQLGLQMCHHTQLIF
UniProt Q14644: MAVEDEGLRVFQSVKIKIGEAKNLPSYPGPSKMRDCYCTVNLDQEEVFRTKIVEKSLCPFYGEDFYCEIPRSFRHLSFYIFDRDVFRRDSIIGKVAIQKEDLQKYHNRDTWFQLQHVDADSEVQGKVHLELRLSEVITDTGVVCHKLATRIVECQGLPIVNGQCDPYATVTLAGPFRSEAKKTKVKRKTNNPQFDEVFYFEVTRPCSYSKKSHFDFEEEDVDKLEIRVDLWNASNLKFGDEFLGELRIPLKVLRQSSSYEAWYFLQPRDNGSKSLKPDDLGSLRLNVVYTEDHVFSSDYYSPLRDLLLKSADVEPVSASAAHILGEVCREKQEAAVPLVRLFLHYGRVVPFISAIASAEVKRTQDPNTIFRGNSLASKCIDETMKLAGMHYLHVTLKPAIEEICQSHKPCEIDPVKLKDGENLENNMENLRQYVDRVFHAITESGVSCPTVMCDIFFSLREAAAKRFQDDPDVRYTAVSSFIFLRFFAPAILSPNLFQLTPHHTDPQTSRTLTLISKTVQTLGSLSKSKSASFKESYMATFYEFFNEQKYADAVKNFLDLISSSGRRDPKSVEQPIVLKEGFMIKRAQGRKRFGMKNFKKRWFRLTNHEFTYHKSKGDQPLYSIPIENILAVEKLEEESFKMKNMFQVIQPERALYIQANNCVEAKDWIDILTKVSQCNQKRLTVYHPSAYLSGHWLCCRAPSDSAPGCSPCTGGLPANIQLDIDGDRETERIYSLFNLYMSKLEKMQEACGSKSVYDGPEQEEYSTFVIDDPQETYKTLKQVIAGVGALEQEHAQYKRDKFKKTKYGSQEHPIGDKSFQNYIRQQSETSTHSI
UniProt Q96D70: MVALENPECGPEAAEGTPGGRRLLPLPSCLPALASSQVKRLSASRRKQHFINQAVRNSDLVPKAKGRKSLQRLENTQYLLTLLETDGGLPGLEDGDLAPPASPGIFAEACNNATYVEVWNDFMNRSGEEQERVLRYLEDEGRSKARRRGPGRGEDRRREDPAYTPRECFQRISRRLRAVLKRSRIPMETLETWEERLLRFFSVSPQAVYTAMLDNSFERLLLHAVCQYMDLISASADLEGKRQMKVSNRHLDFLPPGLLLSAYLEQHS
UniProt P28749: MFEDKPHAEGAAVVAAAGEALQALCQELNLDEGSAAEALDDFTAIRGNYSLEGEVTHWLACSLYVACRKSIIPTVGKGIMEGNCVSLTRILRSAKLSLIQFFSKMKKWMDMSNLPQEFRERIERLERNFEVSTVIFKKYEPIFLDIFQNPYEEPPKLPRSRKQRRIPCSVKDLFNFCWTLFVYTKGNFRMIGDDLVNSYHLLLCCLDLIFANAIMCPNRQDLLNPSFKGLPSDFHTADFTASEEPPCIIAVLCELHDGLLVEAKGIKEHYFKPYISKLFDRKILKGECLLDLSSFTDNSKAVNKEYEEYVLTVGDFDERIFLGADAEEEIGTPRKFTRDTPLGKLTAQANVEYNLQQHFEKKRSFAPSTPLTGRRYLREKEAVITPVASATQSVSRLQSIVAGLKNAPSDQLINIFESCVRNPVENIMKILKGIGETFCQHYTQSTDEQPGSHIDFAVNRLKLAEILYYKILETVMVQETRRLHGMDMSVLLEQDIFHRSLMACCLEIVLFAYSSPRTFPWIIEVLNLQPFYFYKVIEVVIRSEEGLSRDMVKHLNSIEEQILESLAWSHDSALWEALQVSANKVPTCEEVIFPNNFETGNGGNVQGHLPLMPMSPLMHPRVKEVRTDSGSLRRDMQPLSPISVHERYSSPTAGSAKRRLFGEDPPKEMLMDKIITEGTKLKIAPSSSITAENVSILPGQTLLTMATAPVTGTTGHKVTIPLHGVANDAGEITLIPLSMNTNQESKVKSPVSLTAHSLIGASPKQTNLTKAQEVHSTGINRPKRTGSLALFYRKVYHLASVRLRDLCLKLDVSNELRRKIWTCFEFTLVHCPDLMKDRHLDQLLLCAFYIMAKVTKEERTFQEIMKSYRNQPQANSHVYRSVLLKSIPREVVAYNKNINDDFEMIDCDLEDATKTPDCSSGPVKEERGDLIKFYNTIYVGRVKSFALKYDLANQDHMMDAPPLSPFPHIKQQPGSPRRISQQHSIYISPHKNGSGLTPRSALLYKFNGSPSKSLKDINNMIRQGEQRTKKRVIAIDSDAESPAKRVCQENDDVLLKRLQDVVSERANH
UniProt Q09028, whole entry, looked up: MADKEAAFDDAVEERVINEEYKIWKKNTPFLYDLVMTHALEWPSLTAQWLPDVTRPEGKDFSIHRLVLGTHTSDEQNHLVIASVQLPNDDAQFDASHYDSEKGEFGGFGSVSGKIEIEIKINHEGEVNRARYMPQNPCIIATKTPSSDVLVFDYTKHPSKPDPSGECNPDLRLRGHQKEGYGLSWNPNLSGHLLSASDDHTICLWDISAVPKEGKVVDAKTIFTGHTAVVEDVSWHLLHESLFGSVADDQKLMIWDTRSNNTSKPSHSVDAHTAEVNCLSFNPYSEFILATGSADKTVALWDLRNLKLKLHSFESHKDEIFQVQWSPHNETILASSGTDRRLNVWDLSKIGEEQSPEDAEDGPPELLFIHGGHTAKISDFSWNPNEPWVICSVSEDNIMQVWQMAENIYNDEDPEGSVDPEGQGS
UniProt Q8N0V3: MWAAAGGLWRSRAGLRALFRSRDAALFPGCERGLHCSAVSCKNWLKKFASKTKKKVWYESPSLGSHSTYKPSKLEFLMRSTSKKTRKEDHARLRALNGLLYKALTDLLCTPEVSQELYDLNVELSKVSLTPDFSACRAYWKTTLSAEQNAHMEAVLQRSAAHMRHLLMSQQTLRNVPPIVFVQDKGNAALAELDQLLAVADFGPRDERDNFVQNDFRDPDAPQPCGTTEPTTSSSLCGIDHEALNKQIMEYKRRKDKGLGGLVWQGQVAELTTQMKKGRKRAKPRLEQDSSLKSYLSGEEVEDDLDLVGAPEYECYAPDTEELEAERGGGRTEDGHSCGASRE
UniProt Q15311: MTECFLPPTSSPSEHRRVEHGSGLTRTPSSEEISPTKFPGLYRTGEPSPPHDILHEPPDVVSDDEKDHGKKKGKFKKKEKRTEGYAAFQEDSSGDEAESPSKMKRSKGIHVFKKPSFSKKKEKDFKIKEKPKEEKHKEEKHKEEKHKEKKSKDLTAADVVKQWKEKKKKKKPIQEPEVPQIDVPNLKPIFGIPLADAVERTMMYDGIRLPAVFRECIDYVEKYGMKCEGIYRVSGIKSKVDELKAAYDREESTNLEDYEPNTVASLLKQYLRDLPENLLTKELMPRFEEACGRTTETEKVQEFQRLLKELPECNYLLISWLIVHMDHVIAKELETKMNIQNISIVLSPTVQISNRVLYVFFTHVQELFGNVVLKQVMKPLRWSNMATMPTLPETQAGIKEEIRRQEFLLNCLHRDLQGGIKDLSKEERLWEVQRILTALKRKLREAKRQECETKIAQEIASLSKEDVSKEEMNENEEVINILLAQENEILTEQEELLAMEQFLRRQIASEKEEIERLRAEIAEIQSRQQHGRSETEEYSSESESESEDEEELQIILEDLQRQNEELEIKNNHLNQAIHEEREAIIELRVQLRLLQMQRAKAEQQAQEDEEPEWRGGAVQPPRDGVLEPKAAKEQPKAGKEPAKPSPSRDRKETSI

How the values were obtained:
Assay in all cases: log2 fold change, soluble protein after heating vs DMSO (PISA); higher = thermal stabilisation; K562 cells, 10 uM, 30 min; active = over 0.2 and 3.5 SD of the protein, either way, in both replicates (recomputed)
[1] = compound: CC1=C(C=C(C=C1)NC(=O)C2=CC(=CC=C2)N(C)C)NC(=O)C3=CC=C(C=C3)O
Summary of the method: (§1)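 K562 cells at 2×10^6 cells/mL were given 10 μM compound for 30 min. Aliquots then went through 3 min of heating across 48°C-58°C, were pooled, and were extracted in PBS with 0.5% NP-40 at 4°C, and the supernatant after 21,000xg for 90 min was quantified by TMTpro 16plex LC-MS/MS with channel sums equalised. Thermal stability relative to control samples, from duplicates, is given as log2 fold change.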

[2] = compound: CC1=CC=C(C=C1)SC2=C3C=C(SC3=CN=C2)C(=O)N
Summary of the method: as §1

[3] = compound: CCCS(=O)(=O)Nc1ccc(F)c(C(=O)c2c[nH]c3ncc(Cl)cc23)c1F
Summary of the method: as §1

[4] = compound: CC[C@@H]1C(=O)N(C)c2cnc(Nc3ccc(C(=O)N[C@H]4CC[C@H](N5CCN(CC6CC6)CC5)CC4)cc3OC)nc2N1C(C)C [volasertib]
Summary of the method: as §1

[5] = compound: CC[C@H](C)N1C=C(C2=C(C=C(C=C21)C3=CN=C(C=C3)N4CCNCC4)C(=O)NCC5=C(C=C(NC5=O)C)C)C
Summary of the method: as §1

[6] = compound: CCn1cc(-c2ccnc3[nH]c(-c4cccc(CN(C)C)c4)cc23)c(-c2ccc(NC(=O)N(C)C)cc2)n1
Summary of the method: as §1

[7] = compound: CN1CCC(CNc2ccc3ncc(-c4cccc(OC(F)(F)F)c4)n3n2)CC1
Summary of the method: as §1

[8] = compound: CC1=C(C=C(C=C1)NC(=O)C2=CC(=CC=C2)C(C)(C)C#N)NC3=CC4=C(C=C3)N=CN(C4=O)C
Summary of the method: as §1

[9] = compound: CCCS(=O)(=O)Nc1ccc(F)c(C(=O)c2c[nH]c3ncc(-c4ccc(Cl)cc4)cc23)c1F [vemurafenib]
Summary of the method: as §1

[10] = compound: CN(C)CC(=O)Nc1ccc2[nH]c(=O)c3ccccc3c2c1
Summary of the method: as §1

[11] = compound: CC1=NC(=CC=C1)C2=C(N=C(N2)C(C)(C)C)C3=CC4=NC=CN=C4C=C3
Summary of the method: as §1

[12] = compound: CCCCN(Cc1ccc(C(=O)NO)cc1)C(=O)Nc1ccccc1 [Nexturastat A]
Summary of the method: as §1

[13] = compound: CCCc1cc(C)[nH]c(=O)c1CNC(=O)c1cc(-c2ccnc(N3CCN(C)CC3)c2)cc2c1cnn2C(C)C
Summary of the method: as §1

[14] = compound: CCN(CC)Cc1ccc2cc(COC(=O)Nc3ccc(C(=O)NO)cc3)ccc2c1 [givinostat]
Summary of the method: as §1

[15] = compound: CCN(CCCOc1ccc2c(Nc3cc(CC(=O)Nc4cccc(F)c4)[nH]n3)ncnc2c1)CCOP(=O)(O)O [barasertib]
Summary of the method: as §1

[16] = compound: CC[C@@H]1C(=O)N(C)c2cnc(Nc3ccc(C(=O)NC4CCN(C)CC4)cc3OC)nc2N1C1CCCC1
Summary of the method: as §1

[17] = compound: CC[C@H](C)[C@@H](C(=O)N[C@@H]([C@@H](C)O)C(=O)N[C@@H](CC(C)C)C(=O)[C@]1(CO1)C)NC(=O)[C@H]([C@@H](C)CC)N(C)C(=O)C [epoxomicin]
Summary of the method: as §1

[18] = compound: CCn1c(C(=O)N(C2CC2)C2CC2)cc2c3c(ncn3C)c(Nc3cc(C)n(C)n3)nc21
Summary of the method: as §1

[19] = compound: CN(CCOC1=CC=C(C=C1)C[C@H]2C(=O)NC(=O)S2)C3=CC=CC=N3 (racemic) [rosiglitazone]
Summary of the method: as §1

[20] = compound: CN1C2=C(C3=C1C(=O)N(N=C3)CC4=CC(=CC=C4)N)SC(=C2)S(=O)C
Summary of the method: as §1

Measured: log2 fold change

RAB11FIP5 (UniProt Q9BXF6)
inactive: [1] 0 | [2] 0.027 | [3] -0.089 | [4] -0.167

RAD23A isoform 3 (UniProt P54725)
inactive: [5] 0.131 | [6] 0.152 | [7] -0.086

RASSF1 (UniProt Q9NS23)
inactive: [8] 0.063 | [1] 0.065 | [9] -0.215 | [10] 0.025

RAP1B (UniProt F5GZG1)
inactive: [8] -0.171 | [2] -0.048 | [11] -0.029 | [12] 0.006 | [9] -0.029 | [3] -0.227 | [13] -0.105 | [14] 0.139 | [15] 0.039 | [16] 0.102 | [4] 0.095 | [5] -0.213 | [17] -0.032 | [18] -0.078 | [10] 0.024 | [19] 0.019 | [20] -0.046

RBCK1 (UniProt Q9BYM8)
inactive: [2] -0.093 | [12] -0.104 | [9] -0.04 | [3] 0.184 | [14] 0.008 | [4] -0.099 | [17] -0.033 | [18] 0.032 | [10] 0.028 | [20] -0.002

RANGRF (UniProt Q9HD47)
inactive: [16] 0.003

RAI1 (UniProt Q7Z5J4)
inactive: [8] -0.335 | [1] 0.35 | [12] 0.169 | [13] -0.147 | [14] 0.168 | [15] 0.2 | [5] -0.001 | [17] 0.025 | [18] -0.053 | [19] -0.03

RAD51B (UniProt O15315)
inactive: [8] 0.053 | [2] -0.012 | [12] -0.048 | [3] 0.046 | [13] 0.006 | [14] -0.05 | [15] 0.093 | [16] 0.134 | [4] 0.056 | [5] 0.117 | [17] -0.057 | [18] 0.064 | [6] -0.152 | [19] -0.116 | [20] -0.085 | [7] -0.131

RAB18 (UniProt H0Y6T8)
inactive: [11] 0.051 | [9] -0.065 | [13] -0.464 | [15] -0.012 | [16] 0.339 | [5] -0.227 | [10] 0.086 | [19] 0.192

RASA3 (UniProt Q14644)
inactive: [6] 0.264 | [20] -0.172 | [7] 0.05

R3HDM4 (UniProt Q96D70)
inactive: [8] -0.404 | [2] 0 | [12] 0.042 | [9] 0.1 | [3] 0.017 | [13] 0.221 | [14] -0.004 | [15] -0.013 | [16] -0.106 | [4] -0.034 | [5] 0.043 | [17] 0.108 | [18] 0.046 | [10] -0.012 | [19] 0.151 | [20] -0.058

RBL1 (UniProt P28749)
inactive: [14] 0.301 | [15] -0.052 | [16] -0.037 | [5] -0.079 | [18] -0.115 | [6] -0.003 | [19] 0.06 | [7] -0.19

RBBP4 isoform 2 (UniProt Q09028)
inactive: [13] -0.06 | [14] 0.059 | [15] -0.011 | [16] 0.035 | [18] -0.028 | [6] 0.096 | [19] 0.074 | [20] 0.028 | [7] -0.002

RBFA (UniProt Q8N0V3)
inactive: [2] 0.143 | [3] 0.108 | [16] -0.081 | [4] 0.024

RALBP1 (UniProt Q15311)
inactive: [8] -0.093 | [2] -0.101 | [11] -0.084 | [12] 0.238 | [9] -0.335 | [3] 0.022 | [4] -0.02 | [17] -0.184 | [6] 0.149 | [10] 0.197 | [7] -0.114

RAB28 (UniProt P51157)
inactive: [1] -0.217 | [11] 0.043 | [9] -0.038 | [14] -0.058 | [18] -0.086 | [6] 0.006 | [10] -0.027 | [20] -0.029 | [7] -0.16

Copied from the results shown (2 entries):
RALBP1 (UniProt Q15311)
inactive: [8] -0.093 | [2] -0.101 | [11] -0.084 | [12] 0.238 | [9] -0.335 | [3] 0.022 | [4] -0.02 | [17] -0.184 | [6] 0.149 | [10] 0.197 | [7] -0.114

RAB28 (UniProt P51157)
inactive: [1] -0.217 | [11] 0.043 | [9] -0.038 | [14] -0.058 | [18] -0.086 | [6] 0.006 | [10] -0.027 | [20] -0.029 | [7] -0.16
